Results: PubChem BioAssay AID256 (DTP/NCI, 2004)
The list does not hold the whole screen: it is rich in T/C values a quarter to a half above the control, in often repeated tests (any T/C) and in doses without a T/C. Further doses and runs are listed elsewhere. T/C is the treated group as % of the vehicle group. Some doses have a count of surviving animals in place of a T/C: the source files T/C as zero there, which appears to mark a toxic dose or a test without result, not a measured value. Some doses without a T/C left all or most animals alive at the check, yet need not have been tolerated: the source hardly ever lists a survival T/C far under the control, and the zero likely stands for such cases as well. Survivors were counted at the toxicity check, usually on the fifth day, unless a day is given; later deaths do not show. Schedule codes are those of the source, taken here to give the interval after Q, in days (D) or hours (H), and the number of doses after X. Some molecules as drawn cover several salts, stereoisomers or complexes of the source; a dose is that of the sample tested. Some entries hold several experiments; their values stand side by side, smallest first. For survival time, this PubChem deposit counts one and a half times the control or more as active, and values a quarter to a half above the control carry no call in these data; other NCI protocols may use other cut-offs. Counts like (3×) stand for listed records that agree. Some T/C values carry the count of animals alive at the toxicity check (mostly the fifth day); without a count, all were alive then.

System: CD2F1 mice, L1210 leukemia ip, survival T/C
Test: NCI In Vivo Anticancer Drug Screen. Data for tumor model L1210 Leukemia (intraperitoneal) in CD2F1 (CDF1) mice
Settings: higher T/C = longer survival
Protocol: The antitumor activity of compounds was measured in mice bearing transplantable tumors. Survival or tumor size were measured and the results are expressed as the measurement made in the treated group (T) divided by the measurement made in the vehicle treated control group (C). The tumor model used in this assay is L1210 Leukemia (intraperitoneal) in CD2F1 (CDF1) mice

[1] = T/C endpoint: mean survival time, dose: 200.0 mg/kg/injection, schedule: Q04DX003 (ip), vehicle: saline with Tween-80
[2] = T/C endpoint: mean survival time, dose: 400.0 mg/kg/injection, schedule: Q04DX003 (ip), vehicle: saline with Tween-80
[3] = T/C endpoint: mean survival time, dose: 400.0 mg/kg/injection, schedule: Q01DX001 (ip), vehicle: saline
[4] = T/C endpoint: mean survival time, dose: 300.0 mg/kg/injection, schedule: Q01DX001 (ip), vehicle: saline
[5] = T/C endpoint: mean survival time, dose: 400.0 mg/kg/injection, schedule: Q04DX002 (ip), vehicle: saline with Tween-80
[6] = T/C endpoint: mean survival time, dose: 200.0 mg/kg/injection, schedule: Q04DX002 (ip), vehicle: saline with Tween-80
[7] = T/C endpoint: mean survival time, dose: 400.0 mg/kg/injection, schedule: Q04DX003 (ip), vehicle: saline
[8] = T/C endpoint: mean survival time, dose: 50.0 mg/kg/injection, schedule: Q01DX009 (ip), vehicle: water
[9] = T/C endpoint: mean survival time, dose: 100.0 mg/kg/injection, schedule: Q01DX009 (ip), vehicle: water
[10] = T/C endpoint: mean survival time, dose: 200.0 mg/kg/injection, schedule: Q01DX009 (ip), vehicle: water

## CCCCCCCC(=O)OCC(=O)[C@]1(O)Cc2c(O)c3c(c(O)c2[C@@H](OC2CC(N)C(O)C(C)O2)C1)C(=O)c1c(OC)cccc1C3=O (stereo partly drawn)
T/C endpoint: mean survival time, dose: 0.25 mg/kg/injection, schedule: Q01DX009 (ip), vehicle: saline with Tween-80
  T/C: 130 % of control
T/C endpoint: mean survival time, dose: 0.5 mg/kg/injection, schedule: Q01DX009 (ip), vehicle: saline sonified
  T/C: 127 % of control
T/C endpoint: mean survival time, dose: 0.5 mg/kg/injection, schedule: Q01DX009 (ip), vehicle: saline with Tween-80
  T/C: 138 % of control
T/C endpoint: mean survival time, dose: 0.5 mg/kg/injection, schedule: Q04DX003 (ip), vehicle: saline with Tween-80
  T/C: 137 % of control
T/C endpoint: mean survival time, dose: 1.0 mg/kg/injection, schedule: Q01DX009 (ip), vehicle: saline sonified
  T/C: 138 % of control
T/C endpoint: mean survival time, dose: 1.0 mg/kg/injection, schedule: Q01DX009 (ip), vehicle: saline with Tween-80
  T/C: 138 % of control
T/C endpoint: mean survival time, dose: 1.0 mg/kg/injection, schedule: Q01DX009 (ip), vehicle: water
  T/C: 125 % of control
T/C endpoint: mean survival time, dose: 1.0 mg/kg/injection, schedule: Q04DX003 (ip), vehicle: saline with Tween-80
  T/C: 132 % of control [5 of 6 alive]
T/C endpoint: mean survival time, dose: 1.25 mg/kg/injection, schedule: Q04DX003 (ip), vehicle: saline with Tween-80
  T/C: 125 % of control
T/C endpoint: mean survival time, dose: 1.4 mg/kg/injection, schedule: Q04DX003 (ip), vehicle: saline with Tween-80
  T/C: 125 % of control
T/C endpoint: mean survival time, dose: 2.0 mg/kg/injection, schedule: Q04DX003 (ip), vehicle: saline with Tween-80
  T/C: 140 and 144 % of control [5 of 6 alive]
T/C endpoint: mean survival time, dose: 2.5 mg/kg/injection, schedule: Q01DX001 (ip), vehicle: saline with Tween-80
  T/C: 130 % of control
T/C endpoint: mean survival time, dose: 2.5 mg/kg/injection, schedule: Q04DX003 (ip), vehicle: saline with Tween-80
  T/C: 134 % of control
T/C endpoint: mean survival time, dose: 4.0 mg/kg/injection, schedule: Q01DX009 (ip), vehicle: saline with Tween-80
  T/C: 134 % of control
T/C endpoint: mean survival time, dose: 4.0 mg/kg/injection, schedule: Q01DX009 (ip), vehicle: water
  T/C: 127 % of control
T/C endpoint: mean survival time, dose: 5.0 mg/kg/injection, schedule: Q01DX001 (ip), vehicle: saline with Tween-80
  T/C: 136 % of control
T/C endpoint: mean survival time, dose: 5.0 mg/kg/injection, schedule: Q04DX003 (ip), vehicle: saline with Tween-80
  T/C: 141 % of control
T/C endpoint: mean survival time, dose: 8.0 mg/kg/injection, schedule: Q01DX009 (ip), vehicle: water
  survivor count: 6 of 6
T/C endpoint: mean survival time, dose: 10.0 mg/kg/injection, schedule: Q01DX001 (ip), vehicle: saline with Tween-80
  T/C: 137 % of control
T/C endpoint: mean survival time, dose: 10.0 mg/kg/injection, schedule: Q04DX003 (ip), vehicle: saline with Tween-80
  T/C: 141 % of control
T/C endpoint: mean survival time, dose: 40.0 mg/kg/injection, schedule: Q01DX001 (ip), vehicle: saline with Tween-80
  survivor count: 1 of 10

## CC(C)=NNCCO
T/C endpoint: mean survival time, dose: 50.0 mg/kg/injection, schedule: Q01DX009 (ip), vehicle: saline
  survivor count: 0 of 5

## CCCCCCCC[n+]1ccc(C#N)cc1
T/C endpoint: mean survival time, dose: 75.0 mg/kg/injection, schedule: Q01DX009 (ip), vehicle: saline
  survivor count: 0 of 6

## Cc1ccc(-c2csc(/N=C/c3ccccc3O)n2)cc1.Cc1ccc(-c2csc(/N=C/c3ccccc3O)n2)cc1.[Cu]
T/C endpoint: mean survival time, dose: 200.0 mg/kg/injection, schedule: Q01DX001 (ip), vehicle: saline with Tween-80
  survivor count: 3 of 3

## CC(=O)N1CCC2(CC1)SSC1(CCN(C(C)=O)CC1)S2
T/C endpoint: mean survival time, dose: 100.0 mg/kg/injection, schedule: Q04DX003 (ip), vehicle: saline with Tween-80
  survivor count: 0 of 6
[1]
  survivor count: 0 of 6
[2]
  survivor count: 0 of 6

## COc1cc(OC)c(OC)cc1/C=C\c1ccc2ccccc2[n+]1C
T/C endpoint: mean survival time, dose: 50.0 mg/kg/injection, schedule: Q01DX009 (ip), vehicle: saline with Tween-80
  survivor count: 4 of 6
[1]
  survivor count: 0 of 6
[2]
  survivor count: 0 of 6

## CN(C)CCSc1nnc(N)s1
T/C endpoint: mean survival time, dose: 100.0 mg/kg/injection, schedule: Q01DX001 (ip), vehicle: saline
  survivor count: 3 of 3
[3]
  survivor count: 0 of 3

## CC(C)(C)N1CCc2cc3c(cc2C1)OCO3
T/C endpoint: mean survival time, dose: 150.0 mg/kg/injection, schedule: Q01DX001 (ip), vehicle: saline
  survivor count: 1 of 6
T/C endpoint: mean survival time, dose: 200.0 mg/kg/injection, schedule: Q01DX001 (ip), vehicle: saline
  survivor count: 0 of 6 and 2 of 6
[4]
  survivor count: 0 of 6
[3]
  survivor count: 0 of 6

## O=c1[nH]c(=O)n([C@H]2CCCO2)cc1F
T/C endpoint: mean survival time, dose: 100.0 mg/kg/injection, schedule: Q01DX009 (ip), vehicle: saline with Tween-80
  T/C: 137 % of control
T/C endpoint: mean survival time, dose: 200.0 mg/kg/injection, schedule: Q01DX005 (ip), vehicle: other
  T/C: 138 % of control
T/C endpoint: mean survival time, dose: 200.0 mg/kg/injection, schedule: Q01DX009 (ip), vehicle: saline with Tween-80
  T/C: 132 % of control
T/C endpoint: mean survival time, dose: 200.0 mg/kg/injection, schedule: Q04DX003 (ip), vehicle: saline
  T/C: 129 % of control
T/C endpoint: mean survival time, dose: 450.0 mg/kg/injection, schedule: Q04DX003 (iv), vehicle: saline with Tween-80
  T/C: 131 % of control
T/C endpoint: mean survival time, dose: 900.0 mg/kg/injection, schedule: Q04DX003 (ip), vehicle: saline with Tween-80
  T/C: 131 % of control
T/C endpoint: mean survival time, dose: 900.0 mg/kg/injection, schedule: Q04DX003 (iv), vehicle: saline with Tween-80
  T/C: 125 % of control

## CC(C)(C)c1ccc(-c2ccncc2)cc1
[5]
  survivor count: 0 of 3

## CN(C)c1nc(-c2ccncc2)nc(N2CCOCC2)n1
[6]
  survivor count: 1 of 3
[5]
  survivor count: 0 of 3

## CC1(C)CC2(C)OC2C2(C1)N=NC(=Nc1ccccc1)O2 (stereo not drawn)
T/C endpoint: median survival time, dose: 100.0 mg/kg/injection, schedule: Q01DX009 (ip), vehicle: saline with Tween-80
  survivor count: 3 of 6
T/C endpoint: median survival time, dose: 200.0 mg/kg/injection, schedule: Q01DX009 (ip), vehicle: saline with Tween-80
  survivor count: 3 of 6
T/C endpoint: median survival time, dose: 400.0 mg/kg/injection, schedule: Q01DX009 (ip), vehicle: saline with Tween-80
  survivor count: 0 of 6

## CN(C)CCCCO
[7]
  survivor count: 1 of 6

## CC(=O)Nc1cc(N(CCOS(C)(=O)=O)CCOS(C)(=O)=O)ccc1N=O
T/C endpoint: mean survival time, dose: 0.75 mg/kg/injection, schedule: Q04DX003 (ip), vehicle: saline
  T/C: 125 % of control [5 of 6 alive]

## NC(=O)c1[nH]nc(C2OC(COP(=O)(O)O)C(O)C2O)c1O (stereo not drawn)
T/C endpoint: median survival time, dose: 50.0 mg/kg/injection, schedule: Q01DX005 (ip), vehicle: saline
  survivor count: 6 of 6
T/C endpoint: median survival time, dose: 100.0 mg/kg/injection, schedule: Q01DX005 (ip), vehicle: saline
  survivor count: 0 of 6

## CCOP(=O)(OCC)Oc1c(Cl)c(Cl)c(OC(=O)Nc2cc(Cl)ccc2Cl)c(Cl)c1Cl
T/C endpoint: mean survival time, dose: 100.0 mg/kg/injection, schedule: Q04DX002 (ip), vehicle: saline with Tween-80
  survivor count: 3 of 3
[6]
  survivor count: 3 of 3
[5]
  survivor count: 3 of 3

## Cc1ccc(S(=O)(=O)NOCCCCONS(=O)(=O)c2ccc(C)cc2)cc1
[1]
  survivor count: 6 of 6
[2]
  survivor count: 6 of 6

## [Br][Pt].[NH-]CC[N-]CC[NH-]
[8]
  survivor count: 4 of 6
[9]
  survivor count: 0 of 6
[10]
  survivor count: 0 of 6

## CCCCC(CC)COP(=O)(CC(CC)CCCC)OCC(CC)CCCC (stereo not drawn)
[7]
  survivor count: 6 of 6

## CC(=O)c1ccc([NH-])c([NH-])c1.[Cl][Pt+2][Cl]
T/C endpoint: mean survival time, dose: 20.0 mg/kg/injection, schedule: Q01DX009 (ip), vehicle: distilled water + Tween-80
  T/C: 125 % of control
T/C endpoint: mean survival time, dose: 40.0 mg/kg/injection, schedule: Q01DX009 (ip), vehicle: distilled water + Tween-80
  T/C: 130 % of control (2×)

## COc1ccc(Cc2nc(C)cc3cc(OC)c(OC)cc23)cc1OC
[8]
  survivor count: 6 of 6
[9]
  survivor count: 6 of 6
[10]
  survivor count: 5 of 6

## CN(C)CCC(C#N)(c1ccccc1)c1ccccc1
[4]
  survivor count: 0 of 6
